Test: quantum yield for lanthanide (Eu3+) luminescence, DCM solution as reference
Assay type: physicochemical
Conditions: excitation at 410 nm, 20° C.

Eu(nta)3 bpt
increase of quantum yield relative to that of Eu(tta)3dpbt: 30%
quantum yield for the Eu3+ luminescence (propanol solution of DCM as reference, complex itself): 0.52
